# From PubChem BioAssay AID1347423 (Functional Genomics Laboratory (NCATS/FGL), 2020)
# Among all 52,000 sequences or so, about 210 (0.4%) were called active.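 Rule for the calls: active = gene whose silencing raises cell survival under the drug, median off-target-corrected z-score across its silencing RNAs 2 or more; inactive = the rest.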 The list shows a part of the results.
# Test: Resistance to Poly (ADP-Ribose) Polymerase inhibitor: Gene Identification via Genome-wide siRNA Screen
# Conditions: mouse BRCA2 R2336H ES cells, olaparib, CellTiter-Glo viability; stronger effect = higher value
# In short: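 Mouse BRCA2 R2336H ES cells were reverse-transfected with siRNA (20 nM final), treated at 48 h with 500 nM olaparib, and read by CellTiter-Glo after 72 h. Scores: MAD-based z per siRNA, median per gene, seed off-target correction.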
row,Sequence,z-score
1,GGUUUGCCAAGAAAACUUATT against 3732413I11Rik,inactive: 0.094
2,GGCAGAGGAGAAAAUCAAGTT against Cutl2,inactive: 0.734
3,GCACAGUUGCUUUACAUCGTT against Psca,inactive: 1.16
4,GUCAUGCUUACUGUUCAGATT against V1rc13,inactive: 0.387
5,GGGACAAGAAACUGGCUCUTT against Olfr1339,inactive: 0.1
6,GGCAACACGUUGAUUGUUGTT against Olfr750,inactive: -0.262
7,GCCAAACUUAGCGUGCUCATT against C130007D14,inactive: -1.73
8,GCAAAAAUGGAAGUAUCUGTT against MGC58426,inactive: 0.0817
9,GGUAAUGGUCAAAUUUGAUTT against Ahsg,inactive: 0.673
10,GGCUGACAAAGAAGAAGCCTT against Dmrta2,inactive: 0.452
11,GGGAACCUUGUCAUGAUGATT against Tcd1d16,inactive: -0.552
12,CCAUCAGGACUCGUGAAUGTT against Fign,inactive: -1.96
13,GCCAUUAAAGGUAACACUGTT against 4930511M11Rik,inactive: 0.209
14,GGACAUCAAGAAGGACAAATT against Ppp2r5d,inactive: -1.8
15,GCCUCUGUUCCAUCUUGGATT against F830104G03Rik,inactive: -1.75
16,GCAGCAUCUAAGAGUGGCGTT against 1110030K22Rik,inactive: -0.398
17,GGACACAAGUUUUCAGAUCTT against 9830169G11Rik,inactive: 0.274
18,GGACGGUGAGAUCUGUUUGTT against Clps,inactive: 1.14
19,GCAACUGCCUAGGCUUGAUTT against Slc30a7,inactive: 0.931
20,GGAACUACAUCAUUCAGAATT against Tspyl1,inactive: -0.378
21,GCCUAAACAUUCAAAUCCCTT against Abcc3,inactive: 1.28
22,GAUCAUUCUCUUUUUCCUCTT against Olfr1095,inactive: 0.694

# An excerpt of these results, with tabs.
row	Sequence	z-score
7	GCCAAACUUAGCGUGCUCATT against C130007D14	inactive: -1.73
8	GCAAAAAUGGAAGUAUCUGTT against MGC58426	inactive: 0.0817
9	GGUAAUGGUCAAAUUUGAUTT against Ahsg	inactive: 0.673

# Single entries from the results shown.
# Value for GGUAAUGGUCAAAUUUGAUTT against Ahsg under z-score: inactive: 0.673
# Value for GAUCAUUCUCUUUUUCCUCTT against Olfr1095 under z-score: inactive: 0.694

# (next part)

row,Sequence,z-score
1,GGUUGUGAACAGCAUGUACTT against Ccr9,inactive: 1.5
2,GCGGGUUAUCCUCUACUACTT against Col15a1,inactive: 0.594
3,GACAAGAACCCGGAUAAUATT against Dnajb10,inactive: 0.668
4,CCCAAGCGGUAUCAUAUUUTT against 1200016B10Rik,inactive: -0.388
5,GGCAGAGGAUCGAGAAAAGTT against Dhrs4,inactive: -0.225
6,CCCACCUUCAAGCAAGAACTT against Ifnk,inactive: -1.19
7,CCGUUUUCAUGCAUUGUUGTT against Olfr1377,inactive: -0.963
8,GGGAUUAAUAUUUUCCUCUTT against Pttg1ip,inactive: -1.37
9,GGUUCUGUUUGUCACAUUCTT against Olfr1234,inactive: -0.16
10,GCCUGCUUAAGCUACUUAUTT against 2010011I20Rik,inactive: 1.12
11,CGUCUGAUCUAGAUGACUCTT against 8430410K20Rik,inactive: 0.122
12,GCAUAGUUGGAACCGUAUUTT against Tdpoz3,inactive: 0.48
13,CGACCUCGUCUACAUCUCCTT against Lrrn6a,inactive: -0.0269
14,CCAUAAGCGAAAUGCCUUCTT against Areg,inactive: -1.01
15,GGAUCGUGAUCCAUCAGAGTT against Rnf3,inactive: -2.55
16,GACACCACCAUCAAUCAACTT against Olfr338,inactive: 0.31
17,CGAAGUUACGAGCAUCCACTT against Crhr2,inactive: 0.659
18,GGCCAUCUUGGACAGCAAGTT against Nt5m,inactive: 0.743
19,CGUUACCAUGAGAGUUAAUTT against Pcdhb19,inactive: 0.133
20,GGCCCAGUCAUGUCAAAUCTT against Olfr1346,inactive: 0.239
21,CCAUGAUUAAGGGUCUCUATT against Ldh1,inactive: -1.26
22,GGAUUCUGUGACCCUUGCATT against Lu,inactive: -1.06

row,Sequence,z-score
1,GCAUAUAAGAGAAGUGCCUTT against D16Ertd607e,inactive: 0.207
2,GGAGGUAGGAAUAUGACUUTT against Klrb1c,inactive: -1.51
3,GCUAAUCAACAAUGUCGCCTT against Atp5b,inactive: -0.627
4,GGAUUUGACACUGCUCCACTT against Arhgef6,inactive: -0.909
5,GGGCUGCAUAUGACAAGGUTT against 1700025B16Rik,inactive: 1.38
6,GGCAGAGUUUCAAUGAGGUTT against Rras,inactive: 0.286
7,CGGAGCAAUACAAACUUUATT against Olfr1263,inactive: -0.152
8,GCUUCCACAACUCAUAAAUTT against Esd,inactive: 0.741
9,GCAGUGGGACAUAGUCAGATT against 1810008K16Rik,inactive: -1.11
10,GGUCUAUUAUGGCUUAAAGTT against Insl5,inactive: 0.234
11,GGUCCUGUAUAAGACAGAATT against Fst,inactive: -1.19
12,CCUAAACUCAGUGCCUCAGTT against Mrps36,inactive: 0.135
13,GGAGCUCAAAACCUCCAAGTT against Odd1,inactive: 0.731
14,GGUCAUGUAUUUCCUCAUCTT against Omp,inactive: -0.393
15,CCUGUCCUCUGGGCAUAAUTT against Olfr1276,inactive: -0.249
16,GCUGUACCCGAAUGAGUUUTT against Mgat2,inactive: 0.554
17,GGAACUGACAGAGCUUGAATT against Krtcap3,inactive: -0.24
18,GCCCAUGUGACGAUAACUGTT against Asrij,inactive: -0.997
19,GGGUUUGGCUCGGUGUAUATT against Mos,inactive: -0.202
20,CCACCCUGCCUAGAAACUUTT against Tmem8,inactive: -0.429
21,CCAUAAUUCAGCUAGACCUTT against Axin1,inactive: 0.526
22,GGCAUUGAGAUGAAAUGAATT against 4933427E11Rik,inactive: 0.618
